Patent US20190002888A1 (INSTITUT NATIONAL DE LA SANTE ET DE LA RECHERCHE MEDICALE …, published 2019)
Results are given in words; binding and its absence hold for the method and conditions named. Some entries that bind do so weakly or less than the wild type. Where a sequence is shown, tags or fusion partners need not be part of it.

Assays:
[1] = target: T1, Fc fragment coupled to ECD of human FLT3 (Fc-ECDhFLT3) (human) (UniProt P36888); assay: summary sentence of Example 2
T1 sequence (looked up): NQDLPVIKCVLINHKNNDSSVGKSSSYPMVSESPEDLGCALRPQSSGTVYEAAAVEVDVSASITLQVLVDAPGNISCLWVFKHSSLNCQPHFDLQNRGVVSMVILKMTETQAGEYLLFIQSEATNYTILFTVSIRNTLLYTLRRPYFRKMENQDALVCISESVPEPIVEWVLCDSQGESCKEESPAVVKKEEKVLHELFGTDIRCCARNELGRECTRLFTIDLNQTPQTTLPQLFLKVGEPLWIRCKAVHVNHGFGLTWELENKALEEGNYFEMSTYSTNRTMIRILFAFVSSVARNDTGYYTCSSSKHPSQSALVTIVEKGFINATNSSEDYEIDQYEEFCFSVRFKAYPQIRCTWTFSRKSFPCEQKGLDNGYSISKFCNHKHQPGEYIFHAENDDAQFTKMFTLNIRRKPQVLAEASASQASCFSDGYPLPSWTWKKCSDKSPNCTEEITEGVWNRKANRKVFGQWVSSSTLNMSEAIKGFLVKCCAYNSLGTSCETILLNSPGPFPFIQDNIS

[2] = target: T2, Fc fragment coupled to ECD of mouse FLT3 (Fc-ECDmFLT3) (mouse) (UniProt Q00342); assay: summary sentence of Example 2
T2 sequence (looked up): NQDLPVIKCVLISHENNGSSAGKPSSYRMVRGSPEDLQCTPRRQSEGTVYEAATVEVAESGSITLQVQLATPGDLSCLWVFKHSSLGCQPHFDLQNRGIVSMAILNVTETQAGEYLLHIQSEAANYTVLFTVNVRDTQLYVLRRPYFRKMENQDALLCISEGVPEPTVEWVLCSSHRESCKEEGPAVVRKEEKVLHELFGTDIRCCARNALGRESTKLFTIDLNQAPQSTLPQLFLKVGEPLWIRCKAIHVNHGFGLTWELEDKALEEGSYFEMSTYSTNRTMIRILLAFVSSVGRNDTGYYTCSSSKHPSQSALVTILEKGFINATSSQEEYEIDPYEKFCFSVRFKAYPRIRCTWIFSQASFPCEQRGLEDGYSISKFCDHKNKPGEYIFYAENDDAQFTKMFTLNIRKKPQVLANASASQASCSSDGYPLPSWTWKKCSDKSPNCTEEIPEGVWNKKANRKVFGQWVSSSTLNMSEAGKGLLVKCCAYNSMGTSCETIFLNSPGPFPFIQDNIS

[3] = target: T1, Fc fragment coupled to ECD of human FLT3 (Fc-ECDhFLT3) (human); assay: ELISA, recombinant protein coated, A3 at 10 µg/mL, anti-human antibody-HRP
[4] = target: T2, Fc fragment coupled to ECD of mouse FLT3 (Fc-ECDmFLT3) (mouse); assay: as above

Measured: binding

B1: A3 antibody (human monoclonal antibody against FLT3) (antibody, V domains shown)
VH: EVQLVESGGSLVKPGGSLRLSCAASGFTFSNSYMNWVRQAPGKGLEWISDISGSSRDIDYADFVKGRFTISRDNATNSLYLQMNSLRAEDTAVYYCVRSGNSGMDVWGRGTLVTVSS
VL: QSVLTQPASVSGSPGQSITISCAGTSSDVGGGYYVSWYQQHPGKAPKLMIYYDSYRPSGVSNRFSGSKSGNTASLTISGLQAEDEADYYCSSYTNNSTRVFGGGTKLEIK
notes: also called antibody A3; anti-FLT3 A3 antibody
binds: all assays above
